Measurements: the supplement of paper PMC7666118
Some of the results follow.

Amino acid sequences for entries named in this document (tags omitted). A change or cut given only in a name is not applied to a line headed by its entry.
UniProt P32019: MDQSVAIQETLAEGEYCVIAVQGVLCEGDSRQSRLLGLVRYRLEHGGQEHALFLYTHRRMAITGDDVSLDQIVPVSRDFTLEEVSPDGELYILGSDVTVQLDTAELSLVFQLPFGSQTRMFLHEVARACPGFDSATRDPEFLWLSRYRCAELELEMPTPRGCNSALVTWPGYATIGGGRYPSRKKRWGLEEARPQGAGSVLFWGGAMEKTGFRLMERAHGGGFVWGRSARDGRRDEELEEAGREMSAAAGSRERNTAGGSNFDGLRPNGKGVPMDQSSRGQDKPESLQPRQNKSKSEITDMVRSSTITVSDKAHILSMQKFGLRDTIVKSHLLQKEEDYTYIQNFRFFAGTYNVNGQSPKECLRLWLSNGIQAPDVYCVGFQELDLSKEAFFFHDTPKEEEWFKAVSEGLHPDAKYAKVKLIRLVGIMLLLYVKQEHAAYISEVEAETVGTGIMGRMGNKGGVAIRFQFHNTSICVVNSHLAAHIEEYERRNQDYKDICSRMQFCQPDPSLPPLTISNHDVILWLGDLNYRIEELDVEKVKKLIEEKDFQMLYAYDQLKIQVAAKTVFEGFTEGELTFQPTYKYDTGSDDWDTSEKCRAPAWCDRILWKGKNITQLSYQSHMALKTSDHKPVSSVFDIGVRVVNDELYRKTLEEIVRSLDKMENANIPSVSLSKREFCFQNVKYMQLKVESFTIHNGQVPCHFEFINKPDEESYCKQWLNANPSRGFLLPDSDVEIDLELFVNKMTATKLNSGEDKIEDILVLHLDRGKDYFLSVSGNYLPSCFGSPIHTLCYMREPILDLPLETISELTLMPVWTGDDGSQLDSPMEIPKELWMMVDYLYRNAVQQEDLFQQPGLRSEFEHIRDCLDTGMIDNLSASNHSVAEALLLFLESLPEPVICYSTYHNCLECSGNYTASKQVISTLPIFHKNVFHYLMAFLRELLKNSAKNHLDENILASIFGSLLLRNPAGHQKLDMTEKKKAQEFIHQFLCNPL
UniProt P13612, whole entry: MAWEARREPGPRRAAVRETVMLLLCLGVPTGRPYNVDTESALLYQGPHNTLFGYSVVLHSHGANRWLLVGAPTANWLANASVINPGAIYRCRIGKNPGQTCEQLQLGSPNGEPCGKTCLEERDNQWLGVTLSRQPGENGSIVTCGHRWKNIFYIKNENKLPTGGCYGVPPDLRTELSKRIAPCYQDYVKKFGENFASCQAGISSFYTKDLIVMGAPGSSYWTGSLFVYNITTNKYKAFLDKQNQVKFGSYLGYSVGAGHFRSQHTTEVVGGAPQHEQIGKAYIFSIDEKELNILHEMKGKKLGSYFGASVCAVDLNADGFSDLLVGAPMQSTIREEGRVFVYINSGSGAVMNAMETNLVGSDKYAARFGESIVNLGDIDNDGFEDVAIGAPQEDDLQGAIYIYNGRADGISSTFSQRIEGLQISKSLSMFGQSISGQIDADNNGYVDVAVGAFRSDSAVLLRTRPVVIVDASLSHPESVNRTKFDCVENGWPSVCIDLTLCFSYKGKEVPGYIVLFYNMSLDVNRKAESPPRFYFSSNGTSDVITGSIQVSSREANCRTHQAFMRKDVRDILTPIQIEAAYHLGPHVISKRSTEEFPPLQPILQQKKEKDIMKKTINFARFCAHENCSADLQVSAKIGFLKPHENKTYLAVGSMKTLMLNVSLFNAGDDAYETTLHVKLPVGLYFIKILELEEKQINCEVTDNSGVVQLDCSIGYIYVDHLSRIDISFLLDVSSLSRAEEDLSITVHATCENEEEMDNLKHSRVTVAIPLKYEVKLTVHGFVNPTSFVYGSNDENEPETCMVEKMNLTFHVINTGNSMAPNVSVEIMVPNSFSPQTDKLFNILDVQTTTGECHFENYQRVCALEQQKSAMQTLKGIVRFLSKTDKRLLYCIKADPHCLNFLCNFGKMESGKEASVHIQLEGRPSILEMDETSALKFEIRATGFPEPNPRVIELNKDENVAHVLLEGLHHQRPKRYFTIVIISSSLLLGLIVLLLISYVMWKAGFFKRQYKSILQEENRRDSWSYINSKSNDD
UniProt P41229: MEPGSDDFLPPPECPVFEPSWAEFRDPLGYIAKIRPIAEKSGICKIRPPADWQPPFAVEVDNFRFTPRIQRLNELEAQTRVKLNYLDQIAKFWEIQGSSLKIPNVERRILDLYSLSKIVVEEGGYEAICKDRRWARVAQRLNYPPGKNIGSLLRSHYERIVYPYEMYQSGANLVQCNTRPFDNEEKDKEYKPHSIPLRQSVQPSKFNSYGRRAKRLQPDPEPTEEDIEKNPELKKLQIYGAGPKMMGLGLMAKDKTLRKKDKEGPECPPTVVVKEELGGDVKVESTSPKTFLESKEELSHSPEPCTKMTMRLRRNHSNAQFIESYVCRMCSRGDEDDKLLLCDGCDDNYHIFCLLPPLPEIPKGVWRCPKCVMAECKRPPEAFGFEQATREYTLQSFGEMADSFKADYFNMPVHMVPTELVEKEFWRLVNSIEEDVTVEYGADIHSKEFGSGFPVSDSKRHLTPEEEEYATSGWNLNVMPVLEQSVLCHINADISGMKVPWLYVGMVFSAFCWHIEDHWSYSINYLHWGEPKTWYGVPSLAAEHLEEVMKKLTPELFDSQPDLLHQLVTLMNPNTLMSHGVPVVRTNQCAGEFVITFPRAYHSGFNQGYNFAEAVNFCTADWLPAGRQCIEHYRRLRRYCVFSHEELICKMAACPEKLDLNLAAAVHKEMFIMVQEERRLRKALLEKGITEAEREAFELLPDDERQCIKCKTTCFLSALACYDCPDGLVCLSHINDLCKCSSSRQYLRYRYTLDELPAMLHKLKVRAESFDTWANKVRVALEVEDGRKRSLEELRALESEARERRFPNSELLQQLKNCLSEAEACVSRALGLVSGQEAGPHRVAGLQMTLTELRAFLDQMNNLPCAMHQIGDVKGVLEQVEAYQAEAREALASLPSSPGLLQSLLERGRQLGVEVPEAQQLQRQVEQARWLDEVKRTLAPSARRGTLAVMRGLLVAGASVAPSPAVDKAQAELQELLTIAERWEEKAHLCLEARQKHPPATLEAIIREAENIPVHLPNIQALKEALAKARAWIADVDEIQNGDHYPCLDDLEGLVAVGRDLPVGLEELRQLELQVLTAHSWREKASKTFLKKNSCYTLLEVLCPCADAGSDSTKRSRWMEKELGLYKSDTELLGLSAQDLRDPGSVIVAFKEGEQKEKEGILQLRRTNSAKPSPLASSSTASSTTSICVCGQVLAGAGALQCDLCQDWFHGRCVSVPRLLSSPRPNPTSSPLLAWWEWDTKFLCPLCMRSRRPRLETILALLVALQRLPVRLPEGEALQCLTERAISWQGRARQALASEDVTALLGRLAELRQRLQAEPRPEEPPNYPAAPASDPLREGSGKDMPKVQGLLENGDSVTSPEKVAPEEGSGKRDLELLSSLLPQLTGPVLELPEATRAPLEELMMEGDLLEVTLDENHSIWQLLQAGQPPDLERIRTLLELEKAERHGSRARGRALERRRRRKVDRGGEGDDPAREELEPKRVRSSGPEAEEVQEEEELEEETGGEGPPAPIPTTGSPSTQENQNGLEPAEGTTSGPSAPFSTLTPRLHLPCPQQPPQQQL
UniProt P17181: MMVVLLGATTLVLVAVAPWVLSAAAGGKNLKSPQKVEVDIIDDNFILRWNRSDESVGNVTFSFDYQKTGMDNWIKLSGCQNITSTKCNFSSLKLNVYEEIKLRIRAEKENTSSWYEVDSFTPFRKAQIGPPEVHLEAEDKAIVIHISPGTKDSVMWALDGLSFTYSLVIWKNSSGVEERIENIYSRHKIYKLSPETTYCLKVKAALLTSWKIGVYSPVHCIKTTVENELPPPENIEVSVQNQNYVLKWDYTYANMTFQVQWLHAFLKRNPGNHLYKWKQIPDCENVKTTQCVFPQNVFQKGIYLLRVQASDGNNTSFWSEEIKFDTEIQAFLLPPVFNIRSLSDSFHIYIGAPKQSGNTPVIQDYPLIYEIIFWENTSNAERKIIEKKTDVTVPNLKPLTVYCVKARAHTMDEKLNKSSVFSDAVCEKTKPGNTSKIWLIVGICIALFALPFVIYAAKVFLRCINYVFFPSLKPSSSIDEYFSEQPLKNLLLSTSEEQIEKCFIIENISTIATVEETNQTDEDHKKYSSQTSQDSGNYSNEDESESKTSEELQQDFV
UniProt Q58WW2: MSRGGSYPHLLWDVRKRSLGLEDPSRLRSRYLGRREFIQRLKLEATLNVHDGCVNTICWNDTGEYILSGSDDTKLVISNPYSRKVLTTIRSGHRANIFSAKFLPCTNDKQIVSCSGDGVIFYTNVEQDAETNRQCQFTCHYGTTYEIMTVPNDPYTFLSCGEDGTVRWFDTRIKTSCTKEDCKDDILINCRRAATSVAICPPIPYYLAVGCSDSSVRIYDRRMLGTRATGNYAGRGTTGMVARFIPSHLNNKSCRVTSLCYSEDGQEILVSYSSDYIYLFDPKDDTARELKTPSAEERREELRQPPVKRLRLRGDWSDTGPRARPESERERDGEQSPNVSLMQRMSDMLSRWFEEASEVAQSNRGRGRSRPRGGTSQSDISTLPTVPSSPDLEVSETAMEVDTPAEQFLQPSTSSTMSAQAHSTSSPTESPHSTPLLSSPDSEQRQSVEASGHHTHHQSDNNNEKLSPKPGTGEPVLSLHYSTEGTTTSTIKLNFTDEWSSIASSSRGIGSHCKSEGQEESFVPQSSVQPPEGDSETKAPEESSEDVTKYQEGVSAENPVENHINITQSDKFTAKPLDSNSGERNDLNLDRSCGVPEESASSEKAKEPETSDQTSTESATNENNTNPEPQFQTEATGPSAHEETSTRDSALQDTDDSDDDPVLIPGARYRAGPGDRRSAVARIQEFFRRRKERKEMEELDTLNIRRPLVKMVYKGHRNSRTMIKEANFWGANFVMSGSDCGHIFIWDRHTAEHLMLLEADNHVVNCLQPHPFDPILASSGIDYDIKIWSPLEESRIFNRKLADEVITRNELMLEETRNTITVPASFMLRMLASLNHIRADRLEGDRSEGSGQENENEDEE
UniProt Q13418: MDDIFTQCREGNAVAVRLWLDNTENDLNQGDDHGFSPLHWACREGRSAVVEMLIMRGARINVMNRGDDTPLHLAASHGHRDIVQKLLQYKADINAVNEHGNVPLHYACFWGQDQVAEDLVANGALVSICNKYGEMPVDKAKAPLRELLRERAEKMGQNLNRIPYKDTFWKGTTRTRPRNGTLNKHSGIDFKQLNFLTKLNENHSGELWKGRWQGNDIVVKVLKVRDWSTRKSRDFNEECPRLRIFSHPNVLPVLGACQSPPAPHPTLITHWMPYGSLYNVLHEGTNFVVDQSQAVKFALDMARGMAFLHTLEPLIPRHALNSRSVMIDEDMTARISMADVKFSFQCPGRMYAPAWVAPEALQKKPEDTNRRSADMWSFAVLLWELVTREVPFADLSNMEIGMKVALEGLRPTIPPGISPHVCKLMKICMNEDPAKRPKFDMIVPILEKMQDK
UniProt P14625, whole entry: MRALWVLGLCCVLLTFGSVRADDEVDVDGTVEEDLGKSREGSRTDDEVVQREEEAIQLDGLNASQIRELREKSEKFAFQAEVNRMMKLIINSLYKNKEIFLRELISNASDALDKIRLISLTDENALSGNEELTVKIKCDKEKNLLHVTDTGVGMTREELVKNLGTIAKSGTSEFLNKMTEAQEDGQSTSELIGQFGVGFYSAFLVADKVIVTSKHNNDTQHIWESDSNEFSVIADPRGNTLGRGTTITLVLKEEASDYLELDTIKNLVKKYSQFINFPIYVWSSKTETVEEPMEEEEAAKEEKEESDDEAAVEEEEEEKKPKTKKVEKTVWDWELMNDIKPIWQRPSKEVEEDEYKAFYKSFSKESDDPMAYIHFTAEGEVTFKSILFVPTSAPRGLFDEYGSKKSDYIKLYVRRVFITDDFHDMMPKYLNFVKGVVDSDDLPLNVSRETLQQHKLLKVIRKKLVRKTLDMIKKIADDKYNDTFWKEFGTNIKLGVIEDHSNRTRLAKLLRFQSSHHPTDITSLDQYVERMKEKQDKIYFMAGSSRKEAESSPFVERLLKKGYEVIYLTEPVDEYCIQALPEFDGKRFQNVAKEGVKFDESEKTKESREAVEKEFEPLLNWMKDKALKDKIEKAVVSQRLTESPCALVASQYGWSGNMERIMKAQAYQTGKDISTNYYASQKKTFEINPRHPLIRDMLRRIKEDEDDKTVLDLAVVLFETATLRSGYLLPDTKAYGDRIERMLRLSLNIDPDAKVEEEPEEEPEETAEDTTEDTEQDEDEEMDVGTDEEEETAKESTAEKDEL
UniProt P04792, whole entry: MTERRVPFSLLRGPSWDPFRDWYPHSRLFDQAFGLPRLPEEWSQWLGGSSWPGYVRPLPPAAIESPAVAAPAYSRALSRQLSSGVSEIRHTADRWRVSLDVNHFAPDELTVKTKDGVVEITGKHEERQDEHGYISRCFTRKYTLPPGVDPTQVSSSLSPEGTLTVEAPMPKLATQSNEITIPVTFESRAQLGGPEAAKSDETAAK

Compound: COc1ccc(Cn2ccc3ccc(C(=O)NO)cc32)cc1
Experiment: dose-dependent thermal stabilisation call (2D-TPP, DLPTP, 10% FDR) (binary (1 = stabilised)); higher = stabilised by the compound
Settings: system: HL-60 intact cells; concentration range 0.04-10 µM

Row | Target | dose-dependent thermal stabilisation call
1 | IPO9 (UniProt Q96P70) | inactive: 0
2 | IGFBP2 (UniProt P18065) | inactive: 0
3 | INPP5B (UniProt P32019) | inactive: 0
4 | HMHA1 (UniProt Q92619) | inactive: 0
5 | IPO13 (UniProt O94829) | inactive: 0
6 | INTS12 (UniProt Q96CB8) | inactive: 0
7 | JMJD6 (UniProt Q6NYC1) | inactive: 0
8 | KIAA0323 (UniProt O15037) | inactive: 0
9 | JMJD5 (UniProt Q8N371) | inactive: 0
10 | ITGA4 (UniProt P13612) | inactive: 0
11 | IFT88 (UniProt Q13099) | inactive: 0
12 | KBTBD4 (UniProt Q9NVX7) | inactive: 0
13 | ITM2A (UniProt O43736) | inactive: 0
14 | IL16 (UniProt Q14005) | inactive: 0
15 | IRAK3 (UniProt Q9Y616) | inactive: 0
16 | ITGA5 (UniProt P08648) | inactive: 0
17 | JARID1C (UniProt P41229) | inactive: 0
18 | HSD17B4 (UniProt P51659) | inactive: 0
19 | IPO5 (UniProt O00410) | inactive: 0

Retrieved one by one from the entries so far, 2 records:
Row | Target | dose-dependent thermal stabilisation call
1 | IPO9 (UniProt Q96P70) | inactive: 0
13 | ITM2A (UniProt O43736) | inactive: 0

Next entries.

Row | Target | dose-dependent thermal stabilisation call
20 | IFNAR1 (UniProt P17181) | inactive: 0
21 | IRS2 (UniProt Q9Y4H2) | inactive: 0
22 | KHSRP (UniProt Q92945) | inactive: 0
23 | ILVBL (UniProt A1L0T0) | inactive: 0
24 | IMPDH1 (UniProt P20839) | inactive: 0
25 | HNRNPAB (UniProt Q99729) | inactive: 0
26 | HNRNPH3 (UniProt P31942) | inactive: 0
27 | HNRNPC (UniProt P07910) | inactive: 0
28 | HMGB2 (UniProt P26583) | inactive: 0
29 | IQWD1 (UniProt Q58WW2) | inactive: 0
30 | ISOC1 (UniProt Q96CN7) | inactive: 0
31 | IDH2 (UniProt P48735) | inactive: 0
32 | ILK (UniProt Q13418) | inactive: 0
33 | HSP90B1 (UniProt P14625) | inactive: 0
34 | JMJD2B (UniProt O94953) | inactive: 0
35 | HSPB1 (UniProt P04792) | inactive: 0
36 | HNRPLL (UniProt Q8WVV9) | inactive: 0
37 | HSPC152 (UniProt Q9UI30) | inactive: 0
